The assay can be described thus: qHTS Assay to Find Inhibitors of Chronic Active B-Cell Receptor Signaling. As to conditions: ABC-DLBCL IkBa-CBG/CBR reporter, luminescence ratio (green luciferase fused to IkBa over red control in TMD8 lymphoma cells), 4 h. The essentials:
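TMD8 human ABC-DLBCL cells with doxycycline-inducible IκBα–green luciferase fusion and unfused red luciferase, in 0.5% FBS medium; compounds up to 46 uM, 4 h at 37C. Green/red luminescence ratio, filter-overlap corrected, fitted to concentration-response curves.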
(In general: qHTS replaces the single test concentration by a dilution series.)

[1] abbreviates: measured here: CBR red luminescence, cell number.
Where [2] appears, read: measured here: IkBa-CBG green luminescence.

The structures appear in SMILES notation. The list shows a part of the results. Further columns of the screen follow, without active or inactive calls. Compounds called inactive in the main read-out are mostly missing here. The note in brackets gives the kind of curve behind each potency; many fits are weak.

The results in this text go back to PubChem BioAssay AID493014 (National Center for Advancing Translational Sciences (NCATS), 2011).

In general, AC50 refers to the concentration giving half of the maximal activity seen. For `CC1=NN(c2ccccc2)C(=O)C1C(=O)C(=O)Nc1ccc(F)cc1` (stereo unspecified), under setting [1], the half-maximal activity concentration (AC50) was 0.398 µM [falling, full curve, poor fit]. As to `COc1ccc(S(=O)(=O)N2CCCCCC2)cc1C(=O)N(C)Cc1c(F)cccc1Cl`, the concentration at half-maximal activity (AC50) under setting [1] was 14.6 µM [rising, partial curve, poor fit]. On the same count and under the same terms, the result for `Cn1c(=O)c2c(nc(Oc3ccccc3Cl)n2C)n(C)c1=O` reads 8.91 µM [falling, single point]; that for `Nc1sc(-c2ccccc2)cc1-c1n[nH]c(=S)n1C1CCCCC1`, 35.5 µM [rising, single point]; that for `O=C(Cc1c[nH]c2ccccc12)NCC(=O)Nc1ccc(F)c(F)c1F`, 23.1 µM [falling, single point].

As to `Cc1oc(C)c2c(=O)ccc3c(c12)OC(N)=C(C#N)C3c1ccc(F)cc1` (stereo unspecified), under setting [1], the AC50 is 35.5 µM [falling, single point].

With `COc1ccc(OC[C@@H](O)CNC(=O)c2cccc3c2C(=O)c2ccc(Cl)cc2S3(=O)=O)cc1`, under setting [1], the half-maximal activity concentration (AC50) was 0.517 µM [falling, full curve, poor fit]. Regarding `c1ccc(-c2ncc3c(ccc4ccccc43)n2)cc1`, under setting [1], the half-maximal activity concentration (AC50) was 5.17 µM [rising, partial curve, poor fit].

With `N#Cc1cccc(CS(=O)(=O)c2ccc(Cl)cc2)c1`, the concentration at half-maximal activity (AC50) under setting [1] was 12.6 µM [rising, single point]. On the same count and under the same terms, as for `COc1cccc(NC(=O)CSc2nc3c(oc4ccccc43)c(=O)[nH]2)c1`, the figure is 10.3 µM [falling, partial curve]; as for `COc1ccc(NC(=O)CSc2nc3sc4c(c3c(=O)n2-c2ccc(OC)cc2)CCN(C)C4)cc1`, 1.26 µM [rising, partial curve, poor fit]. Still for that read-out and setting: as for `CCC(=Cc1ccc(CC)cn1)CC`, the figure is 35.5 µM [rising, partial curve, poor fit]. Regarding `O=C1c2ccccc2C(Nc2ccc(Cl)cn2)N1Cc1ccccc1` (stereo unspecified), under setting [1], the concentration at half-maximal activity (AC50) is 0.517 µM [rising, full curve, poor fit]. Still for that read-out and setting: as for `CCCCc1ccc(NC(=S)N2CCCC2)cc1`, the figure is 2.51 µM [rising, full curve, poor fit]. Regarding `COc1cccc(/C=N/NC(N)=S)c1OS(=O)(=O)c1ccccc1`, under setting [2], the AC50 is 18.4 µM [falling, partial curve, poor fit]. `Cc1ccc(C(=O)C[n+]2cc(-c3ccc(C)cc3)n3c2CCCCC3)cc1`: the AC50 under setting [1] was 11.2 µM [falling, partial curve, poor fit]. The same measure, in the same setting: the result for `O=C(NC(=S)NNC(=O)c1ccccc1O)c1cccnc1` reads 7.08 µM [falling, partial curve]; that for `COC(=O)CCC(=O)c1oc2ccccc2c1N`, 3.98 µM [rising, partial curve, poor fit]; that for `COc1cccc2c(=O)c3cccc(N)c3[nH]c12`, 29.1 µM [falling, partial curve, poor fit].

For `CCC(=O)N(CCC(Cc1ccccc1)c1ccc2c(c1)OCO2)Cc1ccccc1F` (stereo unspecified), under setting [2], the AC50 was 14.1 µM [rising, partial curve, poor fit]. With `CCC(Sc1nc2c(cnn2-c2ccccc2)c(=O)[nH]1)C(=O)OC` (stereo unspecified), the AC50 under setting [1] is 0.731 µM [rising, partial curve, poor fit]. On to `CCN(CC)C(=O)CSc1nc2sc(C)c(C)c2c(=O)[nH]1`, for which the half-maximal activity concentration (AC50) under setting [1] was 29.1 µM [rising, single point]. On the same count and under the same terms, as for `CSc1nc(C)cc(OCCNS(=O)(=O)c2cc(C)ccc2C)n1`, the figure is 0.731 µM [rising, full curve]; as for `Oc1ccc(/C=N\Nc2cc(N3CCOCC3)nc(N3CCOCC3)n2)c(O)c1`, 13 µM [falling, partial curve]. Same read-out and setting: the result for `CCN1CCc2c(sc(NC(=S)NC(=O)c3ccc(Cl)cc3)c2C(N)=O)C1` reads 11.2 µM [rising, partial curve, poor fit].

As for `C[C@H](N)C(=O)OCc1ccc([N+](=O)[O-])cc1`, the AC50 under setting [1] was 3.98 µM [rising, partial curve, poor fit].

As for `Cc1ccc2nc3c(c(Nc4ccc(O)cc4)c2c1)CCC3`, the AC50 under setting [1] is 6.31 µM [falling, full curve, poor fit]. The same measure, in the same setting: the result for `O=C(CNc1ccc(Br)cc1)NC(=O)NC1CCCCC1` reads 4.61 µM [falling, partial curve]. On to `Cc1cccc2nc(CNc3ccc(F)cc3)cn12`, for which the AC50 under setting [1] is 2.06 µM [rising, partial curve, poor fit]. In the case of `O=C(Nc1ccccc1)c1csc(-c2ccccc2)n1`, the half-maximal activity concentration (AC50) under setting [1] is 35.5 µM [falling, single point]. Take `CC(C)CCn1c(NCCc2ccccc2)nc2c1c(=O)n(C)c(=O)n2C`: the concentration at half-maximal activity (AC50) under setting [1] was 11.2 µM [falling, partial curve, poor fit]. Still for that read-out and setting: the result for `C=CC[C@@H](CC(=O)N(CCO)Cc1ccccc1)C(=O)NC[C@H](OC(=O)[C@@H](CC=C)Cc1ccc(F)cc1)c1ccccc1` reads 29.1 µM [falling, single point]; that for `COC(=O)c1ccc(CN2CCc3ccccc32)cc1`, 2.82 µM [falling, partial curve, poor fit]; that for `CC(=O)COc1ccc2c(C)c(-c3ccccc3)c(=O)oc2c1`, 5.01 µM [rising, partial curve, poor fit].

`Cc1cc(C)c2ccc(Cl)cc2n1`: the AC50 under setting [1] is 0.355 µM [rising, full curve, poor fit]. As for `COc1ccc(Cl)cc1C(=O)Nc1ccc2c(c1)OCO2`, the concentration at half-maximal activity (AC50) under setting [1] was 2.82 µM [rising, partial curve, poor fit].

In the case of `Cc1ccsc1/C=C1\SC(N)=NC1=O`, under setting [1], the concentration at half-maximal activity (AC50) was 7.94 µM [falling, partial curve, poor fit]. As to `COc1ccc(C(=O)NNC(=S)NC(=O)c2cccs2)cc1`, the concentration at half-maximal activity (AC50) under setting [1] is 35.5 µM [falling, partial curve, poor fit]. With `COc1ccc(/C=N/NC(=S)Nc2ccccc2)cc1COc1ccc(F)cc1F`, the AC50 under setting [1] was 7.31 µM [rising, partial curve]. In the case of `COc1cc(NS(=O)(=O)c2ccc3ccccc3c2)c2ncccc2c1`, under setting [1], the AC50 is 0.2 µM [rising, full curve, poor fit].

On to `CCOC(=O)C1=C(C)N(C)C(=S)NC1c1ccc(Cl)cc1` (stereo unspecified), for which the half-maximal activity concentration (AC50) under setting [1] is 0.291 µM [rising, partial curve, poor fit]. On the same count and under the same terms, as for `COc1cccc(C2CC(c3cccs3)=NN2C(=O)CSC2=NCCS2)c1OC` (stereo unspecified), the figure is 22.4 µM [falling, single point]; as for `C/C=C/C=C\C(=O)Nc1cccc(C2=NOC3(C2)C[C@H](C(N)=O)N(C(=O)CC#N)C3)c1` (stereo partly specified), 11.2 µM [falling, partial curve, poor fit]. Consider `O=C(NC(=S)Nc1ccccc1Cl)c1cncc(C#Cc2ccccc2)c1`, for which the AC50 under setting [1] is 3.16 µM [falling, full curve, poor fit].

For `COc1cc(SC)ccc1C(=O)N1CC(C)OC(C)C1` (stereo unspecified), the AC50 under setting [1] was 3.98 µM [rising, full curve, poor fit]. On the same count and under the same terms, as for `COc1cccc(CN(Cc2ccco2)S(=O)(=O)c2ccc(S(=O)(=O)NCc3ccccc3)cc2)c1OC`, the figure is 0.184 µM [rising, full curve, poor fit]. Turning to `COc1ccc(C(=O)Nc2ccc3nc(C)sc3c2)cc1OC`, under setting [1], the concentration at half-maximal activity (AC50) is 10 µM [falling, partial curve]. Same read-out and setting: the result for `COc1ccccc1NCC(=O)N/N=C/c1cccnc1` reads 4.47 µM [falling, single point]. Regarding `CC(=O)NC1C(=O)N(CCc2ccccc2)c2ccc(Br)cc21` (stereo unspecified), the AC50 under setting [1] is 29.1 µM [falling, single point]. As to `COc1ccc(C2CC(C)=C(C#N)S(=O)(=O)C2C#N)cc1` (stereo unspecified), the AC50 under setting [1] is 2 µM [rising, partial curve, poor fit]. Same read-out and setting: the result for `Cc1[nH]c2ccccc2c1C(c1ccncc1)N1CCN(c2ccccn2)CC1` (stereo unspecified) reads 10 µM [falling, partial curve, poor fit]; that for `C=CCN=C1SC(CC)C(=O)N1S(=O)(=O)c1ccc(C)cc1` (stereo unspecified), 0.116 µM [rising, full curve, poor fit]. On to `CC(=O)Nc1ccc(NC(=O)CCCSc2nc3ccccc3[nH]2)cc1`, for which the half-maximal activity concentration (AC50) under setting [1] was 0.1 µM [rising, full curve, poor fit]. For the compound `COc1c(Cl)cc(Cl)cc1C(=O)n1nc(C)cc1C`, under setting [1], the AC50 is 20.6 µM [rising, partial curve].

Regarding `O=C1CSC2(CCCCC2)N1CCO`, the concentration at half-maximal activity (AC50) under setting [1] is 35.5 µM [rising, single point]. On the same count and under the same terms, the result for `O=C(O)C(Cc1ccccc1)N1C(=O)/C(=C/c2cccc3ccccc23)SC1=S` (stereo unspecified) reads 20.6 µM [rising, single point].

`COCCn1c(-c2ccccc2)nc2oc3ccccc3c(=O)c2c1=O`: under setting [1], the AC50 is 35.5 µM [falling, single point].

Regarding `CC(=O)c1sc(N/N=C\c2cccc(Br)c2)nc1C`, the AC50 under setting [1] was 0.92 µM [rising, full curve]. Consider `CN(C)c1ccc(/C=C/c2ccc3c4ccccc4ccc3[n+]2-c2ccccc2)cc1`, for which the half-maximal activity concentration (AC50) is 25.1 µM [falling, single point] under setting [1] and 14.1 µM [rising, partial curve, poor fit] under setting [2]. On to `CC(C(=O)O)c1n[nH]c(=O)c2ccccc12` (stereo unspecified), for which, under setting [1], the concentration at half-maximal activity (AC50) is 6.51 µM [rising, single point]. Consider `COc1ccc(C(=O)N2CCN(Cc3cn[nH]c3-c3ccc(OC)cc3F)CC2)cc1`, for which the AC50 under setting [1] was 6.31 µM [rising, single point]. In the case of `CC1Cc2ccccc2N1C(=O)CSc1nc2ccccc2s1` (stereo unspecified), the half-maximal activity concentration (AC50) under setting [1] was 1.16 µM [rising, full curve, poor fit]. Take `CCOCCCNC(=O)c1ccc2c(c1)N=C(CC)c1cc(Br)ccc1S2`: the AC50 runs as follows: under setting [1], 0.501 µM [rising, full curve]; under setting [2], 0.355 µM [falling, full curve]. For the compound `COc1cc(/C=N/NC(=O)c2ccc(O)cc2)ccc1Oc1ccc([N+](=O)[O-])cn1`, the concentration at half-maximal activity (AC50) under setting [1] is 0.184 µM [falling, full curve].
